Literature values as cited in paper PMC8541513, “Stereoselective Synthesis of the Di-Spirooxindole Analogs Based Oxindole and Cyclohexanone Moieties as Potential Anticancer Agents” (Molecules, 2021).

System: PC-3
Parameters: method as in Barakat et al. (15)
Conditions: ref Barakat et al. (15); cited from earlier work

Compound: N.N.[Cl][Pt][Cl] [cisplatin]
- IC50: 5 µM
